Results are given in words; binding and its absence hold for the method and conditions named. Some results given as binding are weak or reduced against the parent protein; the word gives no strength. Sequences can lack the tags named with a protein.
Target: KaiA1 (Slr0756), yeast two-hybrid fusion (Synechocystis sp. PCC 6803) (UniProt P74644)
Test: two-hybrid; AH109 yeast; GAL4 AD and BD fusions; growth on CSM -Leu -Trp -His with 12.5 mM 3-amino-1,2,4-triazole, 6 days at 30 °C

B1: KaiA1 (Slr0756), yeast two-hybrid fusion (protein, UniProt P74644 1-299)
chain: MQSPLSLCLFAPEHVAHRLRSIFQGDRHYLSTFQALDDFCAFLEDKPERIDCLLVYYEANSLPVLNRLYEQGRLLPIILLEPSPSALAKTTDEHPTIVYHNAEIHLPESQWSELPTVVDRAIAHYLHLGPICTLPNQTETIPAPIVDESSQSFLLLQQRRLADKLKERLGYLGVYYKRKPSHFYRNFSPQEKQEYLEDLSSQYREIILSYFSDEGTVNDLLDQFVNQAFFADLAISQILEIHMELMDEFSQHLKLEGRSEEVLLDYRLVLIDILAHLGEMYRRSIPREDIPFDVYYQTD
- binding: binds
